Measured values: PMC3224144
Results are given in words; binding and its absence hold for the method and conditions named.

What was measured:
[1] = molecular target: T1, Cro (bacteriophage lambda), P03040; test: two-hybrid; array-based yeast two-hybrid screens; each protein as bait (Gal4 DNA-binding domain) and as prey (Gal4 activation domain), N- and C-terminal fusions; bait-prey vector pairs pDEST32-pDEST22, pGBKT7g-pGADT7g, pGBKT7g-pGADCg, pGBKCg-pGADCg, pGBKCg-pGADT7g; ten configurations a pair; positives retested; conditions: remark: other sources report otherwise
T1 chain: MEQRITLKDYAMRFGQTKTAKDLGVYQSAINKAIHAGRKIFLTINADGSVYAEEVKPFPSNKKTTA

[2] = molecular target: T2, Exo (exonuclease) (bacteriophage lambda), P03697; test: as above; conditions: remark: other sources report otherwise
T2 chain: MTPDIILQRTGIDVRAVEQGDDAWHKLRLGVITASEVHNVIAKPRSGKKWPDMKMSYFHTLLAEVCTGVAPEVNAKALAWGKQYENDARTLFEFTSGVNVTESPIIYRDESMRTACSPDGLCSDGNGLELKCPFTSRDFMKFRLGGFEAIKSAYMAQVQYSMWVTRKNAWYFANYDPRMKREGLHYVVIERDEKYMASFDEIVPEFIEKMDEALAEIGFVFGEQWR

B1: Cro, P03040 1-66 (protein)
chain: T1 chain
binding [1]: no binding

B2: Bet (= β, strand annealing protein), P03698 1-261 (protein)
chain: MSTALATLAGKLAERVGMDSVDPQELITTLRQTAFKGDASDAQFIALLIVANQYGLNPWTKEIYAFPDKQNGIVPVVGVDGWSRIINENQQFDGMDFEQDNESCTCRIYRKDRNHPICVTEWMDECRREPFKTREGREITGPWQSHPKRMLRHKAMIQCARLAFGFAGIYDKDEAERIVENTAYTAERQPERDITPVNDETMQEINTLLIALDKTWDDDLLPLCSQIFRRDIRASSELTQAEAVKALGFLKQKAAEQKVAA
binding [2]: no binding
